Assay results reported in patent US7247756B2, “1,4-disubstituted benzenes as insecticides” (Bayer CropScience AG, priority 2000, dated 2007).
Some results were stated once for a whole list of compounds, not compound by compound. For at least one compound, name, drawing or mass did not settle the structure.

Tested on: tobacco budworm (Heliothis virescens [Fabricius])
Assay: surface-treated diet test against tobacco budworm
Type: in vivo
Details: rate of application not given
Method: Candidate insecticides are evaluated for activity against the tobacco budworm (Heliothis virescens [Fabricius]) in a surface-treated diet test.
In this test one mL of molten (65–70° C.) wheat germ-based artificial diet is pipetted into each well of a four by six (24 well) multi-well plate (ID#430345-15.5 mm dia.×17.6 mm deep; Corning Costar Corp., One Alewife Center, Cambridge, Mass. 02140). The diet is allowed to cool to ambient temperature before treatment with candidate insecticide.
For a determination of insecticidal activity, solutions of the candidate insecticides are prepared for testing using a Packard 204DT Multiprobe® Robotic System (Packard Instrument Company, 800 Research Parkway, Meriden, Conn. 06450), in which the robot first dilutes a standard 50 millimolar DMSO solution of candidate insecticide with a 1:1 water/acetone solution (V/V) in a ratio of 1:7 stock solution to water/acetone. The robot subsequently pipettes 40 microliters of the so-prepared solution onto the surface of the diet in each of three wells in the 24 multi-well plate. […]
After the five-day exposure period insecticidal activity for each rate of application of candidate insecticide is assessed as percent inhibition of insect weight relative to the weight of insects from untreated controls, and percent mortality when compared to the total number of insects infested.

Row | SMILES | percent growth inhibition values
1 | CCN(CC)CCOc1ccc(COc2cccc3c(Cl)c(Cl)ccc23)cc1 [Compound 224, (2-(4-((5,6-dichloronaphthyloxy)methyl)phenoxy)ethyl)diethylamine] | ≥ 80%
2 | CCN1CCN(c2ccc(COc3cccc4c(Cl)c(Cl)ccc34)cc2)CC1 [Compound 355, 1,2-dichloro-5-{[4-(4-ethylpiperazinyl)phenyl]methoxy}naphthalene] | ≥ 80%
